Some of the results follow. Most values lie at the level of the controls, where differences are scatter.

By UniProt entry, the sequences of proteins in these tests, tags left out. Where a name states a change or a piece, a line headed by the entry shows the natural chain unless it says otherwise.
UniProt O75955: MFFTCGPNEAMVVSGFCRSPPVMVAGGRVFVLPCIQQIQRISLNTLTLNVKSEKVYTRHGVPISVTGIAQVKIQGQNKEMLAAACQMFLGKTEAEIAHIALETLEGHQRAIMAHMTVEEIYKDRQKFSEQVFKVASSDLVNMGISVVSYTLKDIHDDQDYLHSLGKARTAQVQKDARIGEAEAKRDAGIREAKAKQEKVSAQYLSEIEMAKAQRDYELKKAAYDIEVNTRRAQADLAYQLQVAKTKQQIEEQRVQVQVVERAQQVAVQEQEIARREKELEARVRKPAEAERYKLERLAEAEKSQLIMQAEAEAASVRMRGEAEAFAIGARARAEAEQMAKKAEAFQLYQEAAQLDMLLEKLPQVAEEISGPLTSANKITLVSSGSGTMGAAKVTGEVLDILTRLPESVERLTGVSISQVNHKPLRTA
UniProt O95758: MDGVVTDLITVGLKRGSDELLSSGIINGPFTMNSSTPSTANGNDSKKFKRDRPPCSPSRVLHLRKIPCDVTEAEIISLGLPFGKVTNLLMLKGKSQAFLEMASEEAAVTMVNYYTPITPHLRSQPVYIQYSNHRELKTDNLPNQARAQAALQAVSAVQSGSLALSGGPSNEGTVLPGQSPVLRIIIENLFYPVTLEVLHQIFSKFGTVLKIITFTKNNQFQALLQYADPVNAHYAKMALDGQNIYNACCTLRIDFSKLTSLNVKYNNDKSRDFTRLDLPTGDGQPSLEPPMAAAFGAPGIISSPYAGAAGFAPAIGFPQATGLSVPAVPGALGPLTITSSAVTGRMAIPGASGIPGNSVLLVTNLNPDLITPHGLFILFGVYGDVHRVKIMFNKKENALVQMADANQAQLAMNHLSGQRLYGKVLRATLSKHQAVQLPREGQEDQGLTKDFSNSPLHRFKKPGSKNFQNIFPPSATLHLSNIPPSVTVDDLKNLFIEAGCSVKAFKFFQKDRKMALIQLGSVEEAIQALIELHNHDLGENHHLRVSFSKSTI
UniProt O75864: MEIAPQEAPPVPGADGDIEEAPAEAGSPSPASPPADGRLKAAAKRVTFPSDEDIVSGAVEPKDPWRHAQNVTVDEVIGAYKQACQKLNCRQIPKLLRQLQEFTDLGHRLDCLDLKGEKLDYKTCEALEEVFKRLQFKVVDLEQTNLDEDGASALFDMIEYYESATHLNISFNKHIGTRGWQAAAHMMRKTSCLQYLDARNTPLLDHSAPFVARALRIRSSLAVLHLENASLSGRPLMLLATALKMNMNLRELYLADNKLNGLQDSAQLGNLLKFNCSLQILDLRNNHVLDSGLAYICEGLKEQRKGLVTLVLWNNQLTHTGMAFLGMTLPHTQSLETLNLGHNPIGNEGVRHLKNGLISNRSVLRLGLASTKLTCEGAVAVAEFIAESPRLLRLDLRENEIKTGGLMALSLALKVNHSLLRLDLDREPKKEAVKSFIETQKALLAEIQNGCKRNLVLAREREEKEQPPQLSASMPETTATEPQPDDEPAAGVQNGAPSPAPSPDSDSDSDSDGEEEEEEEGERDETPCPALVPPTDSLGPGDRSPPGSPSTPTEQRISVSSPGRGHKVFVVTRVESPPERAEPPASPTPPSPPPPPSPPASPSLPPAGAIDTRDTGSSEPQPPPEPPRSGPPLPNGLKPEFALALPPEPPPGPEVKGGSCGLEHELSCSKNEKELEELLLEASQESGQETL
UniProt O95433, whole entry: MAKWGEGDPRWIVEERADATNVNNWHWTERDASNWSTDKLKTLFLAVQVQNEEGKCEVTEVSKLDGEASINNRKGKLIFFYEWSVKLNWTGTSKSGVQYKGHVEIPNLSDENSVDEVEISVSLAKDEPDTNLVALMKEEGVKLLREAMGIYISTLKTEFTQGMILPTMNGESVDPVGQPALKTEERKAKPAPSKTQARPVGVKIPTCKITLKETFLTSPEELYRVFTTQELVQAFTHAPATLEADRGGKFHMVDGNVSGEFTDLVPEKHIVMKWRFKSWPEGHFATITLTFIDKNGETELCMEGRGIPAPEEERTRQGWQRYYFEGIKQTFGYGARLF
UniProt O75506: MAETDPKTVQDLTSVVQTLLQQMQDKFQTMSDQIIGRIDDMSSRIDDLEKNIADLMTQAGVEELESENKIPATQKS
UniProt O75792: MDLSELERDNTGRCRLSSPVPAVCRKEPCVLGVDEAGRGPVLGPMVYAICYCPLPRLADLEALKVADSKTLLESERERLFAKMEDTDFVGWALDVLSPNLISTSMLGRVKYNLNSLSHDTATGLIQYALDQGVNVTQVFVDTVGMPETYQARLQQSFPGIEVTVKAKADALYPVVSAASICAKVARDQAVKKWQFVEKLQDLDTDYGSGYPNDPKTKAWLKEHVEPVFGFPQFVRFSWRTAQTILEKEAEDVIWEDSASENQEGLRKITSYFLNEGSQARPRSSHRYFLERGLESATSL
UniProt O95260: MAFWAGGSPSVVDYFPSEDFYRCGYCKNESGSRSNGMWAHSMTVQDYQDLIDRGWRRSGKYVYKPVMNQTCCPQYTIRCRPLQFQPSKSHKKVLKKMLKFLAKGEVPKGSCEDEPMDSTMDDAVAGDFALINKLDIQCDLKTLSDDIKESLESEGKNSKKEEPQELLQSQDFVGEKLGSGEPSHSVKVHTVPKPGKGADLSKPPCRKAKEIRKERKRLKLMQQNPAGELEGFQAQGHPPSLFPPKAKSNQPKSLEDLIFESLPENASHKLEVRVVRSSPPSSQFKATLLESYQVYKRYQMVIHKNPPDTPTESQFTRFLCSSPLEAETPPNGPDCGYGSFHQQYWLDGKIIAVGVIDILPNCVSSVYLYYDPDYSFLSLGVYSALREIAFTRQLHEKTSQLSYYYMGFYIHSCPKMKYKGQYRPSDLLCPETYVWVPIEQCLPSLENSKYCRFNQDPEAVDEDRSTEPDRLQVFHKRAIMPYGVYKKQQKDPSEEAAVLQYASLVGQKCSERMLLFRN
UniProt O95777: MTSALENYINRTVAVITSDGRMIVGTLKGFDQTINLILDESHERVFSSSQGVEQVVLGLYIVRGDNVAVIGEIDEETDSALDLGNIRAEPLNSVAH
UniProt O75534: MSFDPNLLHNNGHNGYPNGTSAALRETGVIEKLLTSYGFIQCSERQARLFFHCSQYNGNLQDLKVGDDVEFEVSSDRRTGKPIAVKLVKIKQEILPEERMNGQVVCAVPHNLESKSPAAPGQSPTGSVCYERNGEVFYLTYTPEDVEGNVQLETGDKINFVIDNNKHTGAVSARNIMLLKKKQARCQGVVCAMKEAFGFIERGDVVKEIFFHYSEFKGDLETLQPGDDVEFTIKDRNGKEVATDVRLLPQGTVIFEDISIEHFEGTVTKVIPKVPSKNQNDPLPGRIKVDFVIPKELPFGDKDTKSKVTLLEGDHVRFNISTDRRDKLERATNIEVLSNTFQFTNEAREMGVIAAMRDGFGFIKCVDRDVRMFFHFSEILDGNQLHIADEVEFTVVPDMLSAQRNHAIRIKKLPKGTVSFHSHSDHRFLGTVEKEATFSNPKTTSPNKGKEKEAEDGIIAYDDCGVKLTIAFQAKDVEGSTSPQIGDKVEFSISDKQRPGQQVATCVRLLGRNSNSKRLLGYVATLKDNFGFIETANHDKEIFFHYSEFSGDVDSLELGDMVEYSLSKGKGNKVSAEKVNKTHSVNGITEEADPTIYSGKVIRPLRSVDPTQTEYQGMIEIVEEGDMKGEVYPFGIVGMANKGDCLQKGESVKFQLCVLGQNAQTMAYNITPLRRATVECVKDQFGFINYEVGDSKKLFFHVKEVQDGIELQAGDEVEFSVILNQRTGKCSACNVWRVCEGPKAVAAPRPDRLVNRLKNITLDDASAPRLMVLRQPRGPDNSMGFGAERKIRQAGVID
UniProt O75976: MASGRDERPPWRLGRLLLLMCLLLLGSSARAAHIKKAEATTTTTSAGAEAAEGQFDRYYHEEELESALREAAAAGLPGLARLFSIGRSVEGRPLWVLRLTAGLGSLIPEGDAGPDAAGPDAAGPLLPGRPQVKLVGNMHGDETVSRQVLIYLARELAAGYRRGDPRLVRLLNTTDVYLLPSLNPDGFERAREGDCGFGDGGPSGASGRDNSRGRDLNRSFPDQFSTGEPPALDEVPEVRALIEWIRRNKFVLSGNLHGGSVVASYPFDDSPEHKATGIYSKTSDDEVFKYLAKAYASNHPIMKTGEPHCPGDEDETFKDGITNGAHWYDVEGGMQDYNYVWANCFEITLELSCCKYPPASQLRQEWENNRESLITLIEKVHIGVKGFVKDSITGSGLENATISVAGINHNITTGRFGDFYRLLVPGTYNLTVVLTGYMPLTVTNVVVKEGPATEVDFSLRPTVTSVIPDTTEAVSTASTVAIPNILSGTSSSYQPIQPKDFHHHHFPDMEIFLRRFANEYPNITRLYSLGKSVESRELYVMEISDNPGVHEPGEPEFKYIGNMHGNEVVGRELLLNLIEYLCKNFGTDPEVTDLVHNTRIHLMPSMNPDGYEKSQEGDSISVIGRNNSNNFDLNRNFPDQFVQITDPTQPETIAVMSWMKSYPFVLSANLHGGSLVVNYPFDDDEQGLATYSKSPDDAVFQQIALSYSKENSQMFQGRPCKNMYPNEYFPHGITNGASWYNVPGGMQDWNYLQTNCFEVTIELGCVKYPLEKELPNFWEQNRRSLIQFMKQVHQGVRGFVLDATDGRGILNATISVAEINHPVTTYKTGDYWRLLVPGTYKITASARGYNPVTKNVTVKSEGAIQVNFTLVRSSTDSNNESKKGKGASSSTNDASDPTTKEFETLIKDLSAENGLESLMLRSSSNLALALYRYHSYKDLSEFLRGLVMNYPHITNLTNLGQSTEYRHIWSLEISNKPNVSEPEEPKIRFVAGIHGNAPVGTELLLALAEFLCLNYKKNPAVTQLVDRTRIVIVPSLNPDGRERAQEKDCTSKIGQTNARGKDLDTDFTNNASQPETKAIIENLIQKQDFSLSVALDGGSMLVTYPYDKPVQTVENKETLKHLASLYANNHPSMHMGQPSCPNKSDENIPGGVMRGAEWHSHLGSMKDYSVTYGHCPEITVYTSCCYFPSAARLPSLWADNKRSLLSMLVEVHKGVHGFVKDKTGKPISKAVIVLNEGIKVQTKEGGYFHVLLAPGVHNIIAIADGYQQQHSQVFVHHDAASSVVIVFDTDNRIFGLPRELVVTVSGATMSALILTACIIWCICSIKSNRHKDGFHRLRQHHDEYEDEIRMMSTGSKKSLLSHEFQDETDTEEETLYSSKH
UniProt O95235: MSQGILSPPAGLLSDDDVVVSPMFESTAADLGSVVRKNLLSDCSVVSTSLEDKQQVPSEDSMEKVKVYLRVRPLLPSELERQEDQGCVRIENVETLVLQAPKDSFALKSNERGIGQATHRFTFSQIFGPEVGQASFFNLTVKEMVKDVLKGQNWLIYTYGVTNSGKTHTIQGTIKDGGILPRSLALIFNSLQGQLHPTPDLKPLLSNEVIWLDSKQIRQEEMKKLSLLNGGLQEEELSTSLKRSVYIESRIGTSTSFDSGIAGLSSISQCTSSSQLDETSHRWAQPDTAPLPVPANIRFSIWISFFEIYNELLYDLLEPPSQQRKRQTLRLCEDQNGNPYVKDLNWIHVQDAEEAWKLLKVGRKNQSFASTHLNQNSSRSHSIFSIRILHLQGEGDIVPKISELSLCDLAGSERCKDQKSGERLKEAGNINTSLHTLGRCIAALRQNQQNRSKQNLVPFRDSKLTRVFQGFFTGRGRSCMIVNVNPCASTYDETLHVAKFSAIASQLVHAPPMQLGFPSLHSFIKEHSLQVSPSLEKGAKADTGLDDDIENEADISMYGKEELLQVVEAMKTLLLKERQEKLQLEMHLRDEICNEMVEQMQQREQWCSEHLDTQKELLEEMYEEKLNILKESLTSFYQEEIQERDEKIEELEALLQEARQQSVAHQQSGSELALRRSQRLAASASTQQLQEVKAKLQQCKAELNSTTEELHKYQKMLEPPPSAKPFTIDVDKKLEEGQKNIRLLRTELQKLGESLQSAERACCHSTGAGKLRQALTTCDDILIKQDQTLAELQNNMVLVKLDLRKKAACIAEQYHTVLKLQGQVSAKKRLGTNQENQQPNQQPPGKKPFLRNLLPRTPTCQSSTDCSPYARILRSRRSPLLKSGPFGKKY
UniProt O94788: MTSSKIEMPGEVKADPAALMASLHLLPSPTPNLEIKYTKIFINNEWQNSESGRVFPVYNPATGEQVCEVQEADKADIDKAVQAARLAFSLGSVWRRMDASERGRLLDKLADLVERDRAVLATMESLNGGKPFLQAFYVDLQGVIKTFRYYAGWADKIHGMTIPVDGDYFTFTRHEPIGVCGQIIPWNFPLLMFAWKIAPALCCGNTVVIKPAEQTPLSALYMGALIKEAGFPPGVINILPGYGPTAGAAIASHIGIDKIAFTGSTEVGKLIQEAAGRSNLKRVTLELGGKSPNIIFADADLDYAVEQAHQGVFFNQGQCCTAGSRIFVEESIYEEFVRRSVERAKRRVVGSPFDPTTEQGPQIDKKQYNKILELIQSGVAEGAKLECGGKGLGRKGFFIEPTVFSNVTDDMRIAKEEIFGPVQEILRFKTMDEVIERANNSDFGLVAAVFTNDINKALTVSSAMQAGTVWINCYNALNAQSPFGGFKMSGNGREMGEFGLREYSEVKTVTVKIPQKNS

Compound in the test: Cc1nc(Nc2ncc(C(=O)Nc3c(C)cccc3Cl)s2)cc(N2CCN(CCO)CC2)n1 [dasatinib]
Briefly: log2 fold change of tryptic peptide abundance, ligand vs vehicle (limited proteolysis) (log2 ratio); higher = more trypsin-susceptible (destabilized). As to conditions: ligand concentration: 5 uM; sample: K562 cleared lysate.
For the target “UniProt O96017 (peptide sequence: SCEYCFDEPLLKR, peptide start residue: 120)”, the log2 fold change was -0.122.

For the target “PPM1B (peptide sequence: SGEEGMPDLAHVMR, peptide start residue: 327) (UniProt O75688)”, the log2 fold change stood at 0.138.

Turning to “SNUPN (peptide sequence: FYWMHSKLPEEEGLGEK, peptide start residue: 205) (UniProt O95149)”, the log2 fold change is -0.653.

As to “FLOT1 (peptide sequence: GEAEAFAIGAR, peptide start residue: 320) (UniProt O75955)”, the log2 fold change is 0.319.

Take “KIF4A (peptide sequence: EMCDVEQVLSK, peptide start residue: 1169) (UniProt O95239)”: the log2 fold change was -0.287.

On to “PAPSS2 (peptide sequence: RGQVVGTR, peptide start residue: 40) (UniProt O95340)”, for which the log2 fold change amounted to 0.195.

With “SNAPIN (peptide sequence: RLNHSVAK, peptide start residue: 108) (UniProt O95295)”, the log2 fold change was found to be 0.48.

As to “UniProt O95758 (peptide sequence: EGQEDQGLTKDFSNSPLHR, peptide start residue: 440)”, the log2 fold change is -0.22.

Turning to “PPP1R37 (peptide sequence: TCEALEEVFKR, peptide start residue: 123) (UniProt O75864)”, the log2 fold change was -0.416.

With “CEP152 (peptide sequence: NEEVPVVIR, peptide start residue: 942) (UniProt O94986)”, the log2 fold change is -0.301.

As for “AHSA1 (peptide sequence: WGEGDPRWIVEER, peptide start residue: 4) (UniProt O95433)”, the log2 fold change is -0.269.

For the target “HSBP1 (peptide sequence: FQTMSDQIIGR, peptide start residue: 27) (UniProt O75506)”, the log2 fold change is -0.00888.

For the target “MOCS3 (peptide sequence: LVPVSPLPPK, peptide start residue: 43) (UniProt O95396)”, the log2 fold change was determined as 0.164.

Turning to “RNASEH2A (peptide sequence: TAQTILEK, peptide start residue: 240) (UniProt O75792)”, the log2 fold change was determined as 0.263.

“ATE1 (peptide sequence: LGSGEPSHSVK, peptide start residue: 177) (UniProt O95260)”: the log2 fold change is -0.19.

In the case of “UniProt O95777 (peptide sequence: AEPLNSVAH, peptide start residue: 88)”, the log2 fold change turned out to be 0.109.

Consider “CSDE1 (peptide sequence: VNKTHSVNGITEEADPTIYSGK, peptide start residue: 579) (UniProt O75534)”, for which the log2 fold change was 0.38.

In the case of “CPD (peptide sequence: LRQHHDEYEDEIR, peptide start residue: 1337) (UniProt O75976)”, the log2 fold change amounted to 0.207.

For the target “UniProt O95995 (peptide sequence: HLLYEHQNNLTEMK, peptide start residue: 104)”, the log2 fold change came out at 0.385.

Regarding “KIF20A (peptide sequence: EAGNINTSLHTLGR, peptide start residue: 426) (UniProt O95235)”, the log2 fold change is -0.364.

For the target “UniProt O75460 (peptide sequence: VMHINVAVETLR, peptide start residue: 240)”, the log2 fold change came out at 0.165.

On to “SMNDC1 (peptide sequence: ELEQEREDQK, peptide start residue: 166) (UniProt O75940)”, for which the log2 fold change stood at 0.181.

Regarding “SEC31A (peptide sequence: TTFEDLIQR, peptide start residue: 1121) (UniProt O94979)”, the log2 fold change was determined as 0.121.

As to “UniProt O75820 (peptide sequence: SSGLIQHQR, peptide start residue: 412)”, the log2 fold change was -0.7.

On to “ALDH1A2 (peptide sequence: IEMPGEVK, peptide start residue: 6) (UniProt O94788)”, for which the log2 fold change turned out to be 0.0686.

“SNAPC5 (peptide sequence: KEEETLLR, peptide start residue: 10) (UniProt O75971)”: the log2 fold change is 0.142.

With “TADA2A (peptide sequence: EVQDLYETMR, peptide start residue: 246) (UniProt O75478)”, the log2 fold change turned out to be 0.557.

On to “STAU1 (peptide sequence: MQSTYNYNMR, peptide start residue: 99) (UniProt O95793)”, for which the log2 fold change is -0.279.

For “ZFYVE9 (peptide sequence: LQIPKPLSDHLQNDFPANSGNNTK, peptide start residue: 589) (UniProt O95405)”, the log2 fold change amounted to 0.379.

For the origin of these results see the supplement of paper PMC12819154, “High-throughput peptide-centric local stability assay extends protein–ligand identification to membrane proteins, tissues and bacteria” (Nature Structural & Molecular Biology, 2025).
